Source: patent US20150374779A1, “PHARMACOLOGIC TREATMENTS OF MENIÉRE'S DISEASE” (priority 2014, published 2015)
At least one compound was matched to its structure with a doubt left.

Assays:
KOS strain of HSV-1 [1] = assay: single cycle herpes simplex virus infection assay (virus yield), ATRA-differentiated SH-SY5Y human neuroblastoma cells; assay type: cell-based
Description: (§1) A single cycle herpes simplex virus infection assay was performed to determine the effect of JNK inhibitors on virus yield.
(§2) To prepare a 1 mM stock solution, 5.15 mg of D-JNKI-1 acetate was suspended in 1 ml of water, vortexed for 2 minutes, and sterilized by passage through a PES filter; 50 μL aliquots were prepared and stored at −20° C.
(§3) Human neuroblastoma cells (SH-SY5Y) were maintained in DMEM plus 10% fetal calf serum, 1 mM HEPES (Gibco) and 2 μg/ml gentamicin (Gibco). For differentiation, monolayers of cells were rinsed in PBS and then maintained in Neurobasal medium (Gibco) plus 2% B27 supplement and […] all-trans retinoic acid (ATRA). Primary fetal rat cortex cells were maintained in Neurobasal medium plus 2% B27, 2 mM glutamine and […] gentamicin.
(§4) Monolayers of SH-SY5Y human neuroblastoma cells differentiated by treatment with ATRA, or fetal rat cortex neurons were pre-treated with 10-20 μM D-JNKI-1, 40 μM SP600125 (Calbiochem), or DMSO (D2650, Sigma-Aldrich) vehicle control for 30 minutes prior to infection. […]
(§5) Cells and media were collected, and subjected to three rounds of freezing and thawing. […] After 3 days, the overlay was removed and the cell monolayer stained with 0.8% crystal violet in 50% ethanol and plaques counted to determine virus yield. […]

KOS strain of HSV-1 [2] = assay: single cycle herpes simplex virus infection assay (virus yield), fetal rat cortex neurons; assay type: cell-based
Description: as §1, §2, §3, §4, §5

Oc1c2ccccc2c2c3c(cccc13)N=N2 [SP600125, reference compound]
virus yield (in words) (KOS strain of HSV-1 [1]): substantially reduced
virus yield (in words) (KOS strain of HSV-1 [2]): substantially reduced
